In publication PMC3556083:
These are yes or no findings as the source states them, for the method shown. In cells and extracts the contact can be indirect. A yes stands for co-enrichment or nearness to the bait. Other partners may have been found. Where a sequence is shown, tags or fusion partners need not be part of it.

Biological target: β2-adrenergic receptor (UniProt P07550)
Experiment: affinity purification with mass spectrometry; purified Flag-β2AR in rHDL immobilised on M1 anti-Flag resin, occupied by 50 µM BI-167107 (full agonist) or 50 µM carazolol (inverse agonist); adult rat heart cytosol (10 mg/ml, 4 mM CaCl2) overnight at 4°C; eluted with FLAG peptide and EDTA; gel slices, LC-MS; proteins of the M1 resin, empty rHDL and Ni-NTA controls subtracted; hits of either or both samples; only the target purified

B1: HMGCL (protein, UniProt P97519 28-325)
chain: TLPKRVKIVEVGPRDGLQNEKSIVPTPVKIKLIDMLSEAGLPVIEATSFVSPKWVPQMADHSDVLKGIQKFPGINYPVLTPNMKGFEEAVAAGAKEVSIFGAASELFTRKNVNCSIEESFQRFDGVMQAARAASISVRGYVSCALGCPYEGKVSPAKVAEVAKKLYSMGCYEISLGDTIGVGTPGLMKDMLTAVLHEVPVAALAVHCHDTYGQALANTLVALQMGVSVVDSSVAGLGGCPYAKGASGNLATEDLVYMLTGLGIHTGVNLQKLLEAGDFICQALNRKTSSKVAQATCKL
binding: binds

B2: ALDH2 (protein, UniProt P11884 20-519)
chain: SAAATSAVPAPNQQPEVFCNQIFINNEWHDAVSKKTFPTVNPSTGEVICQVAEGNKEDVDKAVKAAQAAFQLGSPWRRMDASDRGRLLYRLADLIERDRTYLAALETLDNGKPYVISYLVDLDMVLKCLRYYAGWADKYHGKTIPIDGDFFSYTRHEPVGVCGQIIPWNFPLLMQAWKLGPALATGNVVVMKVAEQTPLTALYVANLIKEAGFPPGVVNIVPGFGPTAGAAIASHEDVDKVAFTGSTEVGHLIQVAAGSSNLKRVTLELGGKSPNIIMSDADMDWAVEQAHFALFFNQGQCCCAGSRTFVQEDVYDEFVERSVARAKSRVVGNPFDSRTEQGPQVDETQFKKILGYIKSGQQEGAKLLCGGGAAADRGYFIQPTVFGDVKDGMTIAKEEIFGPVMQILKFKTIEEVVGRANNSKYGLAAAVFTKDLDKANYLSQALQAGTVWINCYDVFGAQSPFGGYKMSGSGRELGEYGLQAYTEVKTVTVKVPQKNS
binding: binds

B3: AMPD3 (protein, UniProt O09178 1-765)
chain: MPRQFPKLNMSDLDEHVRLLAEKVFAKVLREEDSKDVMSLFTVPKDCPIGQKEAKERELQKELAEQKSVETAKRKKSFKMIRSQSMSLQMPTQDWKGPPSVSPAMSPTTPLVLGAASKPGLAPYDMPEYQRATISGDYCAGITMEDYEQAAKSLAKALMIREKYARLAYHRFPRTTAQYLAHQGESVPLEEGLPDFHPPPLPQEDPYCLDDAPPNLGYLVRMQGGVLFVYDNQTMLERQEPHSLPYPDLETYIVDMSHILALITDGPTKTYCHRRLNFLESKFSLHEMLNEMSEFKELKSNPHRDFYNVRKVDTHIHAAACMNQKHLLRFIKYTYQTEPDRTVAEKLGRKITLRQVFDSLHMDPYDLTVDSLDVHAGRQTFHGFDKFNSKYNPVGASELRDLYLKTENYLGGEYFARMVKEVARELEDSKYQYSEPRLSIYGRSPKEWSSLARWFIQHKVYSPNMRWIIQVPRIYDIFRSKKLLPSFGKMLENIFLPLFQATINPQDHRELHLFLKYVTGFDSVDDESKHSDHMFSDKSPSPDLWTSEQNPPYSYYLYYMYANIMVLNNLRRERGLSTFLFRPHCGEAGSITHLVSAFLTADNISHGLLLKKSPVLQYLYYLAQIPIAMSPLSNNSLFLEYSKNPLREFLHKGLHVSLSTDDPMQFHYTKEALMEEYAIAAQVWKLSTCDLCEIARNSVLQSGLSHQEKQKFLGQNYYKEGPEGNDIRKTNVAQIRMAFRYETLCNELSFLSDAMKSEEITALAD
binding: binds

B4: GPD1 (protein, UniProt O35077 1-349)
chain: MAGKKVCIVGSGNWGSAIAKIVGSNASQLAHFDPRVTMWVFEEDIGGRKLTEIINTQHENVKYLPGHKLPPNVVAVPDVVQAATGADILVFVVPHQFIGKICDQLKGHLKANTIGISLIKGIDEGPNGLKLISEVIGESLGIPMSVLMGANIASEVAEEKFCETTIGCKDPAQGQLLKELMQTPNFRITVVQEVDTVEICGALKNIVAVGAGFCDGLGFGDNTKAAVIRLGLMEMIAFAKLFCSGSVSSATFLESCGVADLITTCYGGRNRKVAEAFARTGKSIEQLEKEMLNGQKLQGPQTARELHSILQHKGLVDKFPLFTAVYKVCYEGQPVGEFICCLQNHPEHM
binding: binds

B5: GFPT1 (protein, UniProt P82808 1-681)
chain: MCGIFAYLNYHVPRTRREILETLIKGLQRLEYRGYDSAGVGLDGGNDKDWEANACKIQLIKKKGKVKALDEEVHKQQDMDLDIEFDVHLGIAHTRWATHGEPSPVNSHPQRSDKNNEFIVIHNGIITNYKDLKKFLESKGYDFESETDTETIAKLVKYMYDNWESQDVSFTTLVERVIQQLEGAFALVFKSVHFPGQAVGTRRGSPLLIGVRSEHKLSTDHIPILYRTGKDKKGSCGLSRVDSTTCLFPVEEKAVEYYFASDASAVIEHTNRVIFLEDDDVAAVVDGRLSIHRIKRTARDHPGRAVQTLQMELQQIMKGNFSSFMQKEIFEQPESVVNTMRGRVNFDDYTVNLGGLKDHIKEIQRCRRLILIACGTSYHAGMATRQVLEELTELPVMVELASDFLDRNTPVFRDDVCFFISQSGETADTLMGLRYCKERGALTVGITNTVGSSISRETDCGVHINAGPEIGVASTKAYTSQFVSLVMFALMMCDDRISMQERRKEIMLGLKRLPDLIKEVLSMDDEIQKLATELYHQKSVLIMGRGYHYATCLEGALKIKEITYMHSEGILAGELKHGPLALVDKLMPVIMIIMRDHTYAKCQNALQQVVARQGRPVVICDKEDTETIKNTKRTIKVPHSVDCLQGILSVIPLQLLAFHLAVLRGYDVDFPRNLAKSVTVE
binding: binds

B6: QKI (protein, UniProt Q91XU1 1-341)
chain: MVGEMETKENPNPTPDYLMQLMNDKKLMSSLPNFCGIFNHLERLLDEEISRVRKDMYNDTLNGSTEKRSAELPDAVGPIVQLQEKLYVPVKEYPDFNFVGRILGPRGLTAKQLEAETGCKIMVRGKGSMRDKKKEEQNRGKPNWEHLNEDLHVLITVEDAQNRAEIKLKRAVEEVKKLLVPAAEGEDSLKKMQLMELAILNGTYRDANIKSPALAFSLAATAQAAPRIITGPAPVLPPAALRTPTPAGPTIMPLIRQIQTAVMPNGTPHPTAAIVPPGPEAGLIYTPYEYPYTLAPATSILEYPIEPSGVLGAVATKVRRHDMRVHPYQRIVTADRAATGN
binding: binds

B7: PTPMT1 (protein, UniProt P0C089 32-193)
chain: PAHRDWYHRIDHTVLLGALPLRSMTRRLVLDENVRGVITMNEEYETRFLCNTSKEWKNVGVEQLRLSTVDMTGVPTLANLHRGVQFALKYQSLGQCVYVHCKAGRSRSATMVAAYLIQVHNWSPEEAIEAIAKIRSHISIRPSQLEILKEFHKEIAARAAKN
binding: binds

B8: CRAT (protein, UniProt Q704S8 1-626)
chain: MLAFAARTVVKPLGLLKPSSLMKVSGRFKAHQDALPRLPVPPLQQSLDHYLKALQPIVSEEEWAHTKQLVDEFQTSGGVGERLQKGLERRAKKMENWLSEWWLKTAYLQFRQPVVIYSSPGVLLPKQDFMDLQGQLRFAAKLIEGVLDFKSMIDNETLPVEFLGGQPLCMNQYYQILSSCRVPGLKQDSVVNFLKSKKPPTHITVVHNYQFFELDVYHSDGTPLTSDQIFVQLEKIWNSSLQSNKEPVGILTSNHRNSWAKAYSSLIKDKVNRESVNSIQKSIFTVCLDKQVPRVSDDVYRSHVAGQMLHGGGSKFNSGNRWFDKTLQFIVAEDGSCGMVYEHAAAEGPPIVALVDHVMEYTKKPELVRSPMVPLPMPKKLRFNITPEIKNDIEKAKQNISIMIQDLDIMMLVFHHFGKDFPKSQKLSPDAFIQIALQLAYYRIYGQACATYESASLRMFHLGRTDTIRSASTDSLAFVKGMDDPKVPEQQRVELLRKAVQAHRAYTDRAIRGEAFDRHLLGLKLQAIEDLVSMPDIFMDTSYAIAMHFNLSTSQVPAKTDCVMSFGPVVPDGYGICYNPMEAHINFSVSAYNSCAETNAARMAHYLEKALLDMRTLLQNHPRAKL
binding: binds

B9: SH3GLB1 (protein, UniProt Q6AYE2 1-365)
chain: MNIMDFNVKKLAADAGTFLSRAVQFTEEKLGQAEKTELDAHLENLLSKAECTKVWTEKIMKQTEVLLQPNPNARIEEFVYEKLDRKAPSRINNPELLGQYMIDAGTEFGPGTAYGNALIKCGETQKRIGTADRELIQTSALNFLTPLRNFIEGDYKTIAKERKLLQNKRLDLDAAKTRLKKAKAAETKSSSEQELRITQSEFDRQAEITRLLLEGISSTHAHHLRCLNDFVEAQMTYYAQCYQYMLDLQKQLGSFPSNYVSNNNQTSGTPVPYTLSNTIGPSAVASTGSLVITCPPNLSDLKDSSSTRKARVLYDYDAANSTELSLLADEVITVFSVVGMDSDWLMGERGNQKGKVPITYLELLN
binding: binds
